Measurements: the supplement of paper PMC11006884
The entries are a selection whose mix differs from that of the whole data set.

Protein sequences, listed by entry. Tags and fused reporters are not part of them. Lines headed by an entry give the natural chain unless they say otherwise; changes in a name come on top.
UniProt Q13557, whole entry, looked up: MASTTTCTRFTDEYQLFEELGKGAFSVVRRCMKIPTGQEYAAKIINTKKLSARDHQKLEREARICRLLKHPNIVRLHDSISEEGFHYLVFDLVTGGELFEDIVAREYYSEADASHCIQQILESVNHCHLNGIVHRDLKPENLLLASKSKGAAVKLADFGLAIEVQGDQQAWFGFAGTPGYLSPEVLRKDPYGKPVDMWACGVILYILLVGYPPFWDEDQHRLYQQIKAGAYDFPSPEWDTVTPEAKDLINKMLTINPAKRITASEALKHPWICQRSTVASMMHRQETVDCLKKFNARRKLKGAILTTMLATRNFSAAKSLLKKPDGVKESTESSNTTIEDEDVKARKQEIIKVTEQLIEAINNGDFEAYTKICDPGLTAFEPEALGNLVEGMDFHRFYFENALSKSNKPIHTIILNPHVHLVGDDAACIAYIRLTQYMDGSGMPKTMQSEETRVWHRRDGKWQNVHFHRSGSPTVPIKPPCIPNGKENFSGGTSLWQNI
UniProt Q13564: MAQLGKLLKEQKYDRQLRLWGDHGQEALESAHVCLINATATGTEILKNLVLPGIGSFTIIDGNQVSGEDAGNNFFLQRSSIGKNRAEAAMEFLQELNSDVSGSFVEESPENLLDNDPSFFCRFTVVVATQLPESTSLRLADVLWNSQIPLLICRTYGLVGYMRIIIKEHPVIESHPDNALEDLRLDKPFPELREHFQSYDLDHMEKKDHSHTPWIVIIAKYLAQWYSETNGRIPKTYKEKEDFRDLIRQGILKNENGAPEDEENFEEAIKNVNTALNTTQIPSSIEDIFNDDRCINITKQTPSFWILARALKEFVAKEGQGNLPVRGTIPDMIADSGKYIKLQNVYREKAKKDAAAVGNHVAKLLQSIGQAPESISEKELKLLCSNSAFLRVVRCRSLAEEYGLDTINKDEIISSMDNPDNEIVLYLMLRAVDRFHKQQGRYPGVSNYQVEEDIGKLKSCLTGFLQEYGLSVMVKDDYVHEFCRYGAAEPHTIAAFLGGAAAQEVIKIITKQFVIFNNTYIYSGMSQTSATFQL
UniProt Q14C86: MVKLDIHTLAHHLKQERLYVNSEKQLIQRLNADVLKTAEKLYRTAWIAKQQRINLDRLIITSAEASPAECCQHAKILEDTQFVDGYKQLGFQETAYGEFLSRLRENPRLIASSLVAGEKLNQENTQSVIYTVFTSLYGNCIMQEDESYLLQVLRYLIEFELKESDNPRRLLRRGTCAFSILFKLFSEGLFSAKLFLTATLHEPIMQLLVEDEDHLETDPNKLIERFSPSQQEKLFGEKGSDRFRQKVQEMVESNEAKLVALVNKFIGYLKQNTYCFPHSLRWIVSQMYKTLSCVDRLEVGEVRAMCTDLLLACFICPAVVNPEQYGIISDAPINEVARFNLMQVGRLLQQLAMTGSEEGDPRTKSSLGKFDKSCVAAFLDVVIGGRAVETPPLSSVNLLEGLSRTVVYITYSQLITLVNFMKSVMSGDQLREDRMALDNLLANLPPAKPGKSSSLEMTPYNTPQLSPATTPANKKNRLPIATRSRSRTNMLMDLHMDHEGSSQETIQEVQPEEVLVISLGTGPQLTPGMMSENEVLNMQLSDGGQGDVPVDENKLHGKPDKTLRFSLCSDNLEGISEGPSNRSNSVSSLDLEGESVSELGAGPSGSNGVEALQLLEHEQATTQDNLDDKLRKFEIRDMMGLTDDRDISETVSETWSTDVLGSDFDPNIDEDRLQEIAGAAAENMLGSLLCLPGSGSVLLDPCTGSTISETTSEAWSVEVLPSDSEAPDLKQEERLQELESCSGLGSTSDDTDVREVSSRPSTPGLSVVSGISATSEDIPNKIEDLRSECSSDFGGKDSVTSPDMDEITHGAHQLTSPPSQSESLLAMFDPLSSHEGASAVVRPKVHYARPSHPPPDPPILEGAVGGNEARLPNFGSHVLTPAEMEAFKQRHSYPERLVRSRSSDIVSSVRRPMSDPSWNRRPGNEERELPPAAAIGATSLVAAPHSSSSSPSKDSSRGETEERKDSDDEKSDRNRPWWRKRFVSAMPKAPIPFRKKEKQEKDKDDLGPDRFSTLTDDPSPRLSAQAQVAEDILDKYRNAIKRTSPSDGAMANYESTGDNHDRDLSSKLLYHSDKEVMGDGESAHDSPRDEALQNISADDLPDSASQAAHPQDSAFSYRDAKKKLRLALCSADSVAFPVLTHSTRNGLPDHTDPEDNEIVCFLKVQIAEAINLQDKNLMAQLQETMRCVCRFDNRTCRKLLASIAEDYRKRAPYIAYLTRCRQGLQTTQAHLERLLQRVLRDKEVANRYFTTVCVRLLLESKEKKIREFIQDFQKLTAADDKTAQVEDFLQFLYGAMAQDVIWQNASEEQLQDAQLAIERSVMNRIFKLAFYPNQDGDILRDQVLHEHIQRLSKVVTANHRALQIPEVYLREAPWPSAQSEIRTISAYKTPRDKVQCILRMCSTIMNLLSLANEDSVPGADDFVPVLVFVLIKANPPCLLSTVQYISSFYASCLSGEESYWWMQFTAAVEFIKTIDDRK
UniProt Q14566: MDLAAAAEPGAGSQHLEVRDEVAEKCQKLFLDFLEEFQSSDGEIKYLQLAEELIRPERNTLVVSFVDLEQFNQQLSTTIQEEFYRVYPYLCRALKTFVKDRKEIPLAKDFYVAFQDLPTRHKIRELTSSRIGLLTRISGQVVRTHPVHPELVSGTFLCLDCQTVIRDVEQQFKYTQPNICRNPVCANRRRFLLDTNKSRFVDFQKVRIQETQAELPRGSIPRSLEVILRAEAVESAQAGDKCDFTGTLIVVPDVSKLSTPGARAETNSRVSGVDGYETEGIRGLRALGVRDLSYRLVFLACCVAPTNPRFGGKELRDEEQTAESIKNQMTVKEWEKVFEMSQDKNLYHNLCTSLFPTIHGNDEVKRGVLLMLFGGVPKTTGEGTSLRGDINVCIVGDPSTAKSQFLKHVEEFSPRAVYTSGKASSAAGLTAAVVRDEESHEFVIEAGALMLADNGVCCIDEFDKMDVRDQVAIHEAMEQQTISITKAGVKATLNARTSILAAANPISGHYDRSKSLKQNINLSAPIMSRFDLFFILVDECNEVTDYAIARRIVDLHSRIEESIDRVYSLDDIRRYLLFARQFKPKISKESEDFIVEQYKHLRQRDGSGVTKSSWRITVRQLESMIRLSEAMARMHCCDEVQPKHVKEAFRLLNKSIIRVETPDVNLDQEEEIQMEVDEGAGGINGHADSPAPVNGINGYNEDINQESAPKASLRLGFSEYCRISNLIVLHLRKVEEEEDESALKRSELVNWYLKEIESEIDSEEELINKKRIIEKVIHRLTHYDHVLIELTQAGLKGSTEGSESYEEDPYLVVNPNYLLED
UniProt Q14974, whole entry, looked up: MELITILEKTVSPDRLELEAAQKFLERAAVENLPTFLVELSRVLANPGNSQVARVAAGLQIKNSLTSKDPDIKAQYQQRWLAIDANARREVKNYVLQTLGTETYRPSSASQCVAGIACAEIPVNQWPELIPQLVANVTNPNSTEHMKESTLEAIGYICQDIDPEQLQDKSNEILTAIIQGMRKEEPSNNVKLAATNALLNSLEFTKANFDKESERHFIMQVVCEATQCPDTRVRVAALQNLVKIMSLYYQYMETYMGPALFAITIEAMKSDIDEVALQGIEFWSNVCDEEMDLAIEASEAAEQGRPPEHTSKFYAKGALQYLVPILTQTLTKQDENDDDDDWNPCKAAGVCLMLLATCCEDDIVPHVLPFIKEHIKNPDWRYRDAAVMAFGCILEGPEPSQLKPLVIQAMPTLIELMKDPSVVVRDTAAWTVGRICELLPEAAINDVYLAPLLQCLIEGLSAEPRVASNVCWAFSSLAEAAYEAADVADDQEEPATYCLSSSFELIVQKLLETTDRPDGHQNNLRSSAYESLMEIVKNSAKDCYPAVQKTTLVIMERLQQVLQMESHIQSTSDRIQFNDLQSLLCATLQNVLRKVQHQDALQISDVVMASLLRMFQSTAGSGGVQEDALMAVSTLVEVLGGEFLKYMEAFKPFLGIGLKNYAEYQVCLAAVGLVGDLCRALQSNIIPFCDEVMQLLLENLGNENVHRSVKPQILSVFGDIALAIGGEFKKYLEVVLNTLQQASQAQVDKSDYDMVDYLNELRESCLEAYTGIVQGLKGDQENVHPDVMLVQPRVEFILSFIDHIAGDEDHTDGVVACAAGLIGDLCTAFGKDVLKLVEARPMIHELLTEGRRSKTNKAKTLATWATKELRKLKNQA
UniProt Q13642: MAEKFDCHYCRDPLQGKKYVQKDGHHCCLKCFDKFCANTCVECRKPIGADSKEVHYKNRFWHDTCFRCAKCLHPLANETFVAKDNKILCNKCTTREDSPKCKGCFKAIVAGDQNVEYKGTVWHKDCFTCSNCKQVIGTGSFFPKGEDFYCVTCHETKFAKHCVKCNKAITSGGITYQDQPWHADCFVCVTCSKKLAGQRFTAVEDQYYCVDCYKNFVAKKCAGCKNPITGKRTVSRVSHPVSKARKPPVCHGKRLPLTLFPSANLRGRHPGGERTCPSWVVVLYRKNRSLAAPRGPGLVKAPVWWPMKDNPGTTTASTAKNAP
UniProt Q14684: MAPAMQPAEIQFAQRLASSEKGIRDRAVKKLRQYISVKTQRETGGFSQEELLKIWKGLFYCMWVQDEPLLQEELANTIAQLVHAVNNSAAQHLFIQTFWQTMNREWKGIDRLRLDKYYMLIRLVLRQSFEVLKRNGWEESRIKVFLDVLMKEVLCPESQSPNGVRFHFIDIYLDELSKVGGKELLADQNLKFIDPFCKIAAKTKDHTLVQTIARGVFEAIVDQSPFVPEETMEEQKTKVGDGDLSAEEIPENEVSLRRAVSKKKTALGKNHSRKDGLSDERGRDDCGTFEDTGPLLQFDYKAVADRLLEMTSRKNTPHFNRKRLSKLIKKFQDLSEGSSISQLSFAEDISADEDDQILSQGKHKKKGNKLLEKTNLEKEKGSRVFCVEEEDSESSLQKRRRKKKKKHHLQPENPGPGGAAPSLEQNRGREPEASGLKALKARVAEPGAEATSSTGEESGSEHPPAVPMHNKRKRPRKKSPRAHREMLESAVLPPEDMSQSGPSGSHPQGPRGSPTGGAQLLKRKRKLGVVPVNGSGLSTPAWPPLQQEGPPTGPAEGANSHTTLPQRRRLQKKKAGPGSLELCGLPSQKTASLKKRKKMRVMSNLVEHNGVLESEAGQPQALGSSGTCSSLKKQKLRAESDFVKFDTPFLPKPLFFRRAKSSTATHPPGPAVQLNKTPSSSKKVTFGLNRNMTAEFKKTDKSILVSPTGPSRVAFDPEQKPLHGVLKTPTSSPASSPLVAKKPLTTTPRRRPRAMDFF
UniProt Q14692: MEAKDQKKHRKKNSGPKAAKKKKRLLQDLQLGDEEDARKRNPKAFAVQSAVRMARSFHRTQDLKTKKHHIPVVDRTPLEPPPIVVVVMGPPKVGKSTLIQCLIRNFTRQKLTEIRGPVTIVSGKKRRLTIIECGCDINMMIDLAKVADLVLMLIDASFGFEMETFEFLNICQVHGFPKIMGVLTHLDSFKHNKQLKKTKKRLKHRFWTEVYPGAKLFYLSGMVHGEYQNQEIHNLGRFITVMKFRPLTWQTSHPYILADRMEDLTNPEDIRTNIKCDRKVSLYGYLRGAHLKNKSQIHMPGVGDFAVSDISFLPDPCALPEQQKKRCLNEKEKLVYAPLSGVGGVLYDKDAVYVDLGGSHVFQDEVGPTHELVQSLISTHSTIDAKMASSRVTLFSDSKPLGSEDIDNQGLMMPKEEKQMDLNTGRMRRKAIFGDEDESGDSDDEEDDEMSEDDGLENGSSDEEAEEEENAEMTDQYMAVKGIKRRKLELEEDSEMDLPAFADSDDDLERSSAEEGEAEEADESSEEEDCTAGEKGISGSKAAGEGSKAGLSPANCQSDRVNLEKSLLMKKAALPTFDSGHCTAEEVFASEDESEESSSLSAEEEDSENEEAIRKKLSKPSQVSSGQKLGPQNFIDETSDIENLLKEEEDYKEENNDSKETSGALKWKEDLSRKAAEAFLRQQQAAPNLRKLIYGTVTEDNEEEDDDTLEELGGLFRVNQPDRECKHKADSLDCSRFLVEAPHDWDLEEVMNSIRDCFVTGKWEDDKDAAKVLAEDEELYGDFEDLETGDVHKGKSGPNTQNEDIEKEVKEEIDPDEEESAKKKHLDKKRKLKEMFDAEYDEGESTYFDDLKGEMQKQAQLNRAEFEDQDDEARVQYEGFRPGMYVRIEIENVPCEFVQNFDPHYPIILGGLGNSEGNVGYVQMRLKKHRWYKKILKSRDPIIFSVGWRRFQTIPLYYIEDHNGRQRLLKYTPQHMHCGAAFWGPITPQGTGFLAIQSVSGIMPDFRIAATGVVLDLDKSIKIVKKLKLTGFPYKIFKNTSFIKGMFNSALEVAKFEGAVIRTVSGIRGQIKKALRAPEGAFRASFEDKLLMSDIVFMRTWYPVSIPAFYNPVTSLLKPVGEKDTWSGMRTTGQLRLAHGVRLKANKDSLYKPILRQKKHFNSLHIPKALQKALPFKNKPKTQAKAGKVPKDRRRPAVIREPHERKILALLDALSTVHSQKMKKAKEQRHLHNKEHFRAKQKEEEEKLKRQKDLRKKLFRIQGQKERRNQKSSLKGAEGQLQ

Compound: COC(=O)C#Cc1ccccc1 [methyl 3-phenylpropiolate]
Experiment: log2 ratio of iodoacetamide-alkyne labeling of the cysteine site, DMSO over compound (competition); higher = stronger covalent engagement of the cysteine by the compound, active = 1 or more
Details: 500 µM; treatment time 1 h; system: HEK293T cell lysate
Procedure, shortened: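 HEK293T lysate (2 mg/mL) was incubated with electrophile (500 µM) or vehicle for 1 h at ambient temperature and then with iodoacetamide alkyne for 1 h. Labelled proteins were clicked to sCIP-TMT reagents, pooled, digested, enriched on streptavidin and measured by Orbitrap Eclipse LC-MS/MS with FAIMS, with FragPipe quantification. The per-cysteine log2 competition ratio is mean control-channel reporter intensity over mean compound-channel reporter intensity. Across three replicates with duplicate channels, cysteines quantified in only one replicate were excluded.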

Row | Target | log2 ratio of iodoacetamide-alkyne labeling
1 | CAMK2G C7 (UniProt Q13555) | inactive: 0.45
2 | TUBB3 C124 (UniProt Q13509) | inactive: 0.685
3 | DYNC1H1 C1977 (UniProt Q14204) | inactive: 0.124
4 | UniProt Q13557_C273 | inactive: -0.0989
5 | NAE1 C384 (UniProt Q13564) | inactive: -0.115
6 | WRN C171 (UniProt Q14191) | inactive: 0.312
7 | NUMA1 C1729 (UniProt Q14980) | inactive: 0.16
8 | ITPR3 C2668 (UniProt Q14573) | inactive: 0.381
9 | GAPVD1 C1129 (UniProt Q14C86) | inactive: 0.233
10 | MCM6 C185 (UniProt Q14566) | inactive: 0.0744
11 | PIN1 C57 (UniProt Q13526) | inactive: -0.187
12 | KPNB1 C436 (UniProt Q14974) | inactive: 0.582
13 | SPTAN1 C1622 (UniProt Q13813) | inactive: -0.0196
14 | FHL1 C31 (UniProt Q13642) | inactive: 0.286
15 | SART3 C537 (UniProt Q15020) | inactive: 0.142
16 | UniProt Q14004_C701 | inactive: 0.296
17 | MTMR2 C95 (UniProt Q13614) | inactive: 0.0149
18 | DCTN1 C1252 (UniProt Q14203) | inactive: 0.704
19 | DYNC1H1 C4216 (UniProt Q14204) | inactive: 0.162

Some values from the results shown:
SART3 C537 (UniProt Q15020) | log2 ratio of iodoacetamide-alkyne labeling: inactive: 0.142
MCM6 C185 (UniProt Q14566) | log2 ratio of iodoacetamide-alkyne labeling: inactive: 0.0744

The listing continues:

Row | Target | log2 ratio of iodoacetamide-alkyne labeling
20 | RRP1B C386 (UniProt Q14684) | inactive: 0.28
21 | SPCS2 C17 (UniProt Q15005) | inactive: 0.769
22 | TRIP12 C35 (UniProt Q14669) | inactive: 0.627
23 | PUM1 C964 (UniProt Q14671) | inactive: 0.457
24 | BMS1 C895 (UniProt Q14692) | inactive: 0.11
25 | KPNB1 C158 (UniProt Q14974) | inactive: 0.282
26 | BOP1 C404 (UniProt Q14137) | inactive: 0.271
27 | GNL2 C336 (UniProt Q13823) | inactive: 0.66
28 | KPNB1 C689 (UniProt Q14974) | inactive: 0.138
29 | ZNF638 C652 (UniProt Q14966) | inactive: 0.587
30 | MCM6 C242 (UniProt Q14566) | inactive: 0.192
31 | UniProt Q15019_C111 | inactive: 0.706
32 | FHL1 C188 (UniProt Q13642) | inactive: 0.313
33 | WTAP C270 (UniProt Q15007) | inactive: 0.496
34 | SQSTM1 C131 (UniProt Q13501) | inactive: 0.051
35 | FHL1 C65 (UniProt Q13642) | inactive: -0.131
36 | CHD4 C1594 (UniProt Q14839) | inactive: 0.364
37 | HNRNPD C226 (UniProt Q14103) | inactive: -0.397
